These are yes or no findings as the source states them, for the method shown. In cells and extracts the contact can be indirect. A yes stands for co-enrichment or nearness to the bait. Other partners may have been found. Sequences can lack the tags named with a protein.

The results in this text go back to article PMC9217950.

For assay [1], the target named is T1, FLAG-GST-REL (human), Q04864.
T1 chain: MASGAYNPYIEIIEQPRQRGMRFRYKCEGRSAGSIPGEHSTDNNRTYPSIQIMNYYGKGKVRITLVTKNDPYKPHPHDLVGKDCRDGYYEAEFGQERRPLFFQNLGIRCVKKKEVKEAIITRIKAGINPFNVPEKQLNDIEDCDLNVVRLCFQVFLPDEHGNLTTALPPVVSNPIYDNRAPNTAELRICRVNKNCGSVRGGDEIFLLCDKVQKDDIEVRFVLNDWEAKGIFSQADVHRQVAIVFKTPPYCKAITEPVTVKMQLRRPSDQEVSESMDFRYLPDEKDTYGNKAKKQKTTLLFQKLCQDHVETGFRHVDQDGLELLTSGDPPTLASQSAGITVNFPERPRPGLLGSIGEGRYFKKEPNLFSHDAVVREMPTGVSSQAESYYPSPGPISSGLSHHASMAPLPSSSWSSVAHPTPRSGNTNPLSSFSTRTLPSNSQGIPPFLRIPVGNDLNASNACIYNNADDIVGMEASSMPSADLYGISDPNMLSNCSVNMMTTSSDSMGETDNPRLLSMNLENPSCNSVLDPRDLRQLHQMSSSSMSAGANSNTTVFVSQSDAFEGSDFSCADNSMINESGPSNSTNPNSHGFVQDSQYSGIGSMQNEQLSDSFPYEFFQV
In words: proximity labelling; CF-PPiD on the diversity protein array: 118 FG-tagged human proteins on glutathione magnetic beads, 1536-well plate, 1x and 3x dual spots; translational mixture of AirID, AirID-TP53 or AirID-IκBα with biotin and ATP; HRP-conjugated anti-biotin antibody; only the target purified. To be noted: remark: other sources report otherwise.

For the next assay, the target named is AGIA-AirID-IκBα (human) (UniProt P25963). Description: proximity labelling; in HEK293T cells stably expressing AGIA-AirID-IκBα, transfected 24 h, 50 µM D-biotin 2 h; lysis in 1% SDS, boiled; streptavidin bead pull-down (STA-PDA), anti-FLAG immunoblot. In general terms: A western blot detects proteins with antibodies after separation by electrophoresis.

B1: AirID N-terminally fused to IκBα, P25963 1-317 (protein)
chain: MFQAAERPQEWAMEGPRDGLKKERLLDDRHDSGLDSMKDEEYEQMVKELQEIRLEPQEVPRGSEPWKQQLTEDGDSFLHLAIIHEEKALTMEVIRQVKGDLAFLNFQNNLQQTPLHLAVITNQPEIAEALLGAGCDPELRDFRGNTPLHLACEQGCLASVGVLTQSCTTPHLHSILKATNYNGHTCLHLASIHGYLGIVELLVSLGADVNAQEPCNGRTALHLAVDLQNPDLVSLLLKCGADVNRVTYQGYSPYQLTWGRPSTRIQQQLGQLTLENLQMLPESEDEESYDTESEFTEFTEDELPYDDCVFGGQRLTL
With B1, the binding result in assay [1] is on record as “binds”.

B2: PRDX3 in pCAGGS-MCS-FLAG (protein, UniProt P30048 62-256)
chain: APAVTQHAPYFKGTAVVNGEFKDLSLDDFKGKYLVLFFYPLDFTFVCPTEIVAFSDKANEFHDVNCEVVAVSVDSHFSHLAWINTPRKNGGLGHMNIALLSDLTKQISRDYGVLLEGSGLALRGLFIIDPNGVIKHLSVNDLPVGRSVEETLRLVKAFQYVETHGEVCPANWTPDSPTIKPSPAASKEYFQKVNQ
Turning to B2, in the assay with AGIA-AirID-IκBα (human), the binding result is reported as “binds”.
